Measurements reported in PubChem BioAssay AID1259254 (NCATS, 2017).

Screen: 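Finding genes that stop cells copying their DNA twice in one cycle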 (primary screen)
System: human HCT116 colorectal cancer cells
Reagents: single siRNA against human genes
Time to read-out: 3 days
Measured: 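Nuclei stained with Hoechst and imaged; cell-cycle phase assigned by DNA content; G2 share scaled per plate, non-targeting siRNA 0%, GMNN siRNA 100%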
Scale: G2 robust z-score: higher = more G2 cells, more excess DNA replication
Rule for the call: 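An siRNA counts as active if its G2 robust z-score lies at least 5 MADs above the screen median; here such calls match roughly 38% of GMNN control or more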
This is an unselected part of about 59,000 reagents tested. About 1,550 of them (2.6%) were called active. 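G2 share is only a proxy for re-replication; each gene was hit by three separate siRNAs, and active genes were retested.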 Further read-outs or replicates are left out here. Not given: the amount of reagent.

LOC283804 (GeneID 283804) [SID160763045]
- G2 robust z-score: -0.598
- activity call: inactive

LOC283804 (GeneID 283804) [SID160763046]
- G2 robust z-score: 0.385
- activity call: inactive

LOC283804 (GeneID 283804) [SID160763047]
- G2 robust z-score: 1.45
- activity call: inactive

RPL7AP27 (GeneID 152663) [SID160759264]
- G2 robust z-score: 5.68
- activity call: active

RPL7AP27 (GeneID 152663) [SID160759265]
- G2 robust z-score: 6.23
- activity call: active

RPL7AP27 (GeneID 152663) [SID160759267]
- G2 robust z-score: 2.76
- activity call: inactive

PPA2 (GeneID 27068) [SID160730957]
- G2 robust z-score: -0.921
- activity call: inactive

PPA2 (GeneID 27068) [SID160738313]
- G2 robust z-score: 0.072
- activity call: inactive

PPA2 (GeneID 27068) [SID160738315]
- G2 robust z-score: 0.951
- activity call: inactive

TEFM (GeneID 79736) [SID160749320]
- G2 robust z-score: -0.366
- activity call: inactive

TEFM (GeneID 79736) [SID160749322]
- G2 robust z-score: 0.0892
- activity call: inactive

TEFM (GeneID 79736) [SID160749323]
- G2 robust z-score: -0.795
- activity call: inactive

Continued, starting with the last 3 of the part before.
TEFM (GeneID 79736) [SID160749320]
- G2 robust z-score: -0.366
- activity call: inactive

TEFM (GeneID 79736) [SID160749322]
- G2 robust z-score: 0.0892
- activity call: inactive

TEFM (GeneID 79736) [SID160749323]
- G2 robust z-score: -0.795
- activity call: inactive

OR10T2 (GeneID 128360) [SID160756743]
- G2 robust z-score: -0.777
- activity call: inactive

OR10T2 (GeneID 128360) [SID160756744]
- G2 robust z-score: -0.627
- activity call: inactive

OR10T2 (GeneID 128360) [SID160756745]
- G2 robust z-score: 0.851
- activity call: inactive

WIPF3 (GeneID 644150) [SID160733861]
- G2 robust z-score: 0.773
- activity call: inactive

WIPF3 (GeneID 644150) [SID160769120]
- G2 robust z-score: -0.598
- activity call: inactive

WIPF3 (GeneID 644150) [SID160769121]
- G2 robust z-score: -0.417
- activity call: inactive

RPL4 (GeneID 6124) [SID160716029]
- G2 robust z-score: 7.95
- activity call: active

RPL4 (GeneID 6124) [SID160716030]
- G2 robust z-score: 4.66
- activity call: inactive

RPL4 (GeneID 6124) [SID160716032]
- G2 robust z-score: 10.2
- activity call: active

CDV3 (GeneID 55573) [SID160743820]
- G2 robust z-score: -0.51
- activity call: inactive

CDV3 (GeneID 55573) [SID160743821]
- G2 robust z-score: 0.225
- activity call: inactive

CDV3 (GeneID 55573) [SID160743822]
- G2 robust z-score: -0.748
- activity call: inactive
